From PubChem BioAssay AID248 (DTP/NCI, 2004)
The list shows only some results of the screen, not a fair sample: it covers a few groups of compounds. Not every dose and run of a compound is shown. T/C gives the treated animals as a percentage of the vehicle group. Some doses have a count of surviving animals in place of a T/C: the source files T/C as zero there, which appears to mark a toxic dose or a test without result, not a measured value. Counts of survivors are from the toxicity check (mostly the fifth day) where no day follows; animals may have died later. Schedule codes are those of the source, taken here to give the interval after Q, in days (D) or hours (H), and the number of doses after X. Some metal complexes and salts are drawn in pieces, as in the source, so charges may not balance. For survival time, the PubChem record calls one and a half times the control and up active, and a quarter to a half above the control has no call in these data; cut-offs in other NCI protocols can differ. Some entries were tested several times; the values are given in rising order. Some schedule codes hold Z or #, which are not explained here. Some entries show no survivor count and are marked so; the dose need not have been tolerated. Some T/C values are followed by the survivors on the day toxicity was checked, most often the fifth; where neither a count nor a note follows, no animal had died by that day.

System: L1210 leukemia ip in BDF1 mice, survival T/C
Assay: NCI In Vivo Anticancer Drug Screen. Data for tumor model L1210 Leukemia (intraperitoneal) in B6D2F1 (BDF1) mice
Conditions: T/C endpoint: mean survival time, higher T/C = longer survival
[1] = dose: 100.0 mg/kg/injection, schedule: Q01DX009 (ip), vehicle: Klucel (hydroxypropylcellulose) (HPC)
[2] = dose: 100.0 mg/kg/injection, schedule: Q04DX003 (ip), vehicle: Klucel (hydroxypropylcellulose) (HPC)
[3] = dose: 200.0 mg/kg/injection, schedule: Q01DX009 (ip), vehicle: Klucel (hydroxypropylcellulose) (HPC)
[4] = dose: 200.0 mg/kg/injection, schedule: Q04DX003 (ip), vehicle: Klucel (hydroxypropylcellulose) (HPC)
[5] = dose: 400.0 mg/kg/injection, schedule: Q01DX009 (ip), vehicle: Klucel (hydroxypropylcellulose) (HPC)
[6] = dose: 400.0 mg/kg/injection, schedule: Q04DX003 (ip), vehicle: Klucel (hydroxypropylcellulose) (HPC)
[7] = dose: 100.0 mg/kg/injection, schedule: Q01DX001 (ip), vehicle: saline
[8] = dose: 100.0 mg/kg/injection, schedule: Q01DX009 (ip), vehicle: saline
[9] = dose: 100.0 mg/kg/injection, schedule: Q04DX003 (ip), vehicle: saline
[10] = dose: 200.0 mg/kg/injection, schedule: Q01DX001 (ip), vehicle: saline
[11] = dose: 200.0 mg/kg/injection, schedule: Q01DX009 (ip), vehicle: saline
[12] = dose: 200.0 mg/kg/injection, schedule: Q04DX003 (ip), vehicle: saline
[13] = dose: 400.0 mg/kg/injection, schedule: Q01DX001 (ip), vehicle: saline
[14] = dose: 400.0 mg/kg/injection, schedule: Q04DX003 (ip), vehicle: saline
[15] = dose: 50.0 mg/kg/injection, schedule: Q01DX001 (ip), vehicle: saline
[16] = dose: 25.0 mg/kg/injection, schedule: Q04DX003 (ip), vehicle: Klucel (hydroxypropylcellulose) (HPC)
[17] = dose: 50.0 mg/kg/injection, schedule: Q04DX003 (ip), vehicle: Klucel (hydroxypropylcellulose) (HPC)
[18] = dose: 100.0 mg/kg/injection, schedule: Q01DX001 (ip), vehicle: carboxymethylcellulose (CMC)
[19] = dose: 200.0 mg/kg/injection, schedule: Q01DX001 (ip), vehicle: carboxymethylcellulose (CMC)
[20] = dose: 400.0 mg/kg/injection, schedule: Q01DX001 (ip), vehicle: carboxymethylcellulose (CMC)

In the case of `O=[N+]([O-])c1ccc(Nc2ccc(Oc3ccc([N+](=O)[O-])cc3[N+](=O)[O-])cc2)c([N+](=O)[O-])c1`, the T/C [1] is reported as 96 % of control [5 of 6 alive], the T/C [2] is reported as 95 % of control and the T/C [3] is reported as 100 % of control. For the same molecule, the T/C [4] was 88 % of control, the T/C [5] was 98 % of control [5 of 6 alive] and the T/C [6] was 95 % of control.

`CCCC(NCCCl)C(=O)NCCCl` (configuration not stated) was tested, and the T/C (dose: 100.0 mg/kg/injection, schedule: Q04DX002 (ip), vehicle: saline) was 98 % of control, the T/C (dose: 200.0 mg/kg/injection, schedule: Q04DX002 (ip), vehicle: saline) was 90 % of control and the T/C (dose: 400.0 mg/kg/injection, schedule: Q04DX002 (ip), vehicle: saline) was 110 % of control.

In the case of `CCOP(=O)(CCCl)OCC`, the T/C [7] is reported as 108 % of control [5 of 6 alive], the T/C [8] is reported as 97 % of control and the T/C [9] is reported as 102 % of control. For the same molecule, the T/C [10] was 105 % of control, the T/C [11] was 101 % of control and the T/C [12] was 109 % of control. The T/C [13] was 105 % of control, the T/C (dose: 400.0 mg/kg/injection, schedule: Q01DX009 (ip), vehicle: saline) was 95 % of control and the T/C [14] was 104 % of control.

`[Co].[N-]=[N+]=N.[N-]=[N+]=N.[N-]=[N+]=N.[N-]=[N+]=N.c1ccc([As+](c2ccccc2)(c2ccccc2)c2ccccc2)cc1` was tested, and the survivor count [15] was 2 of 6, the survivor count [7] was 0 of 6 and the survivor count [10] was 0 of 6.

For `O=C1C(Cl)=C(NCCCl)C(=O)C(Cl)=C1NCCCl`, the T/C (dose: 6.25 mg/kg/injection, schedule: Q04DX003 (ip), vehicle: Klucel (hydroxypropylcellulose) (HPC)) was 95 % of control, the T/C (dose: 12.5 mg/kg/injection, schedule: Q04DX003 (ip), vehicle: Klucel (hydroxypropylcellulose) (HPC)) was 101 % of control and the T/C [16] was 92 % of control. The T/C [17] was 90 % of control, the T/C [2] was 104 % of control and the T/C (dose: 150.0 mg/kg/injection, schedule: Q04DX003 (ip), vehicle: Klucel (hydroxypropylcellulose) (HPC)) was 90 % of control. For the same molecule, the T/C [4] was 97 % of control, the T/C (dose: 225.0 mg/kg/injection, schedule: Q04DX003 (ip), vehicle: Klucel (hydroxypropylcellulose) (HPC)) was 101 % of control and the T/C (dose: 335.0 mg/kg/injection, schedule: Q04DX003 (ip), vehicle: Klucel (hydroxypropylcellulose) (HPC)) was 95 % of control.

`CCOC(=O)C(CC(C)C)NC(=O)N(CCCl)CCCl` (configuration not stated) was tested, and the T/C (dose: 125.0 mg/kg/injection, schedule: Q01DX Z (ip), vehicle: water) was 100 % of control, the T/C (dose: 250.0 mg/kg/injection, schedule: Q01DX Z (ip), vehicle: saline) was 96 % of control and the T/C (dose: 250.0 mg/kg/injection, schedule: Q01DX Z (ip), vehicle: water) was 106 % of control. The T/C (dose: 500.0 mg/kg/injection, schedule: Q01DX Z (ip), vehicle: saline) was 112 % of control.

For `O=C(Cl)c1c([N+](=O)[O-])cc([N+](=O)[O-])cc1[N+](=O)[O-]`, the T/C [18] was 97 % of control [survivor count not shown], the T/C [19] was 101 % of control [survivor count not shown] and the T/C [20] was 95 % of control [survivor count not shown].

With `BrP(c1ccccc1)c1ccccc1` the T/C [2] was 101 % of control, the T/C [4] was 97 % of control and the T/C [6] was 94 % of control.

With `C[Si](C)(C)CCCNCCCl` the T/C [18] was 104 % of control, the survivor count [19] was 1 of 4 and the survivor count [20] was 0 of 4.

In the case of `COc1cc(CCNCCCl)cc(OC)c1OC`, the T/C [15] is reported as 104 % of control, the T/C [7] is reported as 116 % of control and the T/C [10] is reported as 113 % of control. The T/C [13] was 98 % of control [3 of 4 alive].

For `O=C(N(CCCl)CCCl)C(F)(F)F`, the T/C [1] was 106 % of control, the T/C [8] was 127 % of control and the T/C [9] was 100 % of control. For the same molecule, the T/C [3] was 121 % of control, the T/C [11] was 125 % of control and the T/C [12] was 95 % of control. The T/C (dose: 250.0 mg/kg/injection, schedule: Q01DX009 (ip), vehicle: saline) was 138 % of control, the T/C [5] was 130 % of control and the T/C [14] was 95 % of control.

In the case of `C1CCN(C2CC3CC2C2CSCC32)CC1` (configuration not stated), the T/C (dose: 75.0 mg/kg/injection, schedule: Q01DX001 (ip), vehicle: other) is reported as 104 % of control [survivor count not shown], the T/C (dose: 150.0 mg/kg/injection, schedule: Q01DX001 (ip), vehicle: other) is reported as 98 % of control [survivor count not shown] and the T/C (dose: 300.0 mg/kg/injection, schedule: Q01DX001 (ip), vehicle: other) is reported as 100 % of control [survivor count not shown].

For `CP(I)(Oc1ccccc1)(Oc1ccccc1)Oc1ccccc1`, the T/C (dose: 50.0 mg/kg/injection, schedule: Q01DX009 (sc), vehicle: olive oil, sesame oil, peanut oil) was 108 % of control [survivor count not shown], the T/C (dose: 100.0 mg/kg/injection, schedule: Q01DX001 (sc), vehicle: olive oil, sesame oil, peanut oil) was 103 % of control [survivor count not shown] and the T/C (dose: 100.0 mg/kg/injection, schedule: Q01DX009 (sc), vehicle: olive oil, sesame oil, peanut oil) was 106 % of control [survivor count not shown]. The T/C (dose: 200.0 mg/kg/injection, schedule: Q01DX001 (sc), vehicle: olive oil, sesame oil, peanut oil) was 103 % of control [survivor count not shown] and the T/C (dose: 400.0 mg/kg/injection, schedule: Q01DX001 (sc), vehicle: olive oil, sesame oil, peanut oil) was 108 % of control [survivor count not shown].

In the case of `S=P(Cl)(Cl)Oc1ccccc1`, the T/C (dose: 6.25 mg/kg/injection, schedule: Q01DX009 (ip), vehicle: saline) is reported as 96 % of control, the T/C (dose: 12.5 mg/kg/injection, schedule: Q01DX009 (ip), vehicle: saline) is reported as 97 % of control and the T/C (dose: 25.0 mg/kg/injection, schedule: Q01DX009 (ip), vehicle: saline) is reported as 105 % of control.

`CON(C)CCCl` was tested, and the T/C [9] was 93 % of control, the T/C [12] was 93 % of control and the T/C [14] was 88 % of control [4 of 6 alive].

For `O=[N+]([O-])c1c(Cl)c(O)c(Cl)c([N+](=O)[O-])c1Nc1c([N+](=O)[O-])c(Cl)c(O)c(Cl)c1[N+](=O)[O-]`, the T/C (dose: 75.0 mg/kg/injection, schedule: Q01DX001 (ip), vehicle: carboxymethylcellulose (CMC)) was 102 % of control, the T/C (dose: 150.0 mg/kg/injection, schedule: Q01DX001 (ip), vehicle: carboxymethylcellulose (CMC)) was 111 % of control and the survivor count (dose: 300.0 mg/kg/injection, schedule: Q01DX001 (ip), vehicle: carboxymethylcellulose (CMC)) was 1 of 6.

In the case of `CN(C)P(N)(Cl)(N(C)C)N(C)C`, the T/C [7] is reported as 95 % of control, the survivor count [10] is reported as 1 of 6 and the survivor count [13] is reported as 0 of 6.

With `O=C(Nc1ccccc1[N+](=O)[O-])c1cc([N+](=O)[O-])cc([N+](=O)[O-])c1` the T/C (dose: 12.5 mg/kg/injection, schedule: Q01DX009 (ip), vehicle: Klucel (hydroxypropylcellulose) (HPC)) was 92 % of control, the T/C (dose: 25.0 mg/kg/injection, schedule: Q01DX009 (ip), vehicle: Klucel (hydroxypropylcellulose) (HPC)) was 90 % of control and the T/C [16] was 100 % of control. The T/C (dose: 50.0 mg/kg/injection, schedule: Q01DX009 (ip), vehicle: Klucel (hydroxypropylcellulose) (HPC)) was 89 % of control and the T/C [17] was 97 % of control.

In the case of `ClCCN(CCCl)B1SCCCS1`, the T/C (dose: 1.6 mg/kg/injection, schedule: Q01DX001 (ip), vehicle: saline) is reported as 104 % of control, the T/C (dose: 3.12 mg/kg/injection, schedule: Q01DX001 (ip), vehicle: saline) is reported as 103 % of control and the T/C (dose: 6.25 mg/kg/injection, schedule: Q01DX001 (ip), vehicle: saline) is reported as 101 and 127 % of control. For the same molecule, the T/C (dose: 12.5 mg/kg/injection, schedule: Q01DX001 (ip), vehicle: saline) was 114 % of control, the T/C (dose: 25.0 mg/kg/injection, schedule: Q01DX001 (ip), vehicle: saline) was 125 % of control and the T/C [15] was 102 % of control.
